These are yes or no findings as the source states them, for the method shown. In cells and extracts the contact can be indirect. Here binding means that the protein was enriched with, or labelled near, the bait; the list need not be complete. Where a sequence is shown, tags or fusion partners need not be part of it.
B1: Septin 2 (protein, UniProt Q15019 1-361)
chain: MSKQQPTQFINPETPGYVGFANLPNQVHRKSVKKGFEFTLMVVGESGLGKSTLINSLFLTDLYPERVIPGAAEKIERTVQIEASTVEIEERGVKLRLTVVDTPGYGDAINCRDCFKTIISYIDEQFERYLHDESGLNRRHIIDNRVHCCFYFISPFGHGLKPLDVAFMKAIHNKVNIVPVIAKADTLTLKERERLKKRILDEIEEHNIKIYHLPDAESDEDEDFKEQTRLLKASIPFSVVGSNQLIEAKGKKVRGRLYPWGVVEVENPEHNDFLKLRTMLITHMQDLQEVTQDLHYENFRSERLKRGGRKVENEDMNKDQILLEKEAELRRMQEMIARMQAQMQMQMQGGDGDGGALGHHV
B2: Septin 7 (protein, UniProt Q16181 1-437)
chain: MSVSARSAAAEERSVNSSTMVAQQKNLEGYVGFANLPNQVYRKSVKRGFEFTLMVVGESGLGKSTLINSLFLTDLYSPEYPGPSHRIKKTVQVEQSKVLIKEGGVQLLLTIVDTPGFGDAVDNSNCWQPVIDYIDSKFEDYLNAESRVNRRQMPDNRVQCCLYFIAPSGHGLKPLDIEFMKRLHEKVNIIPLIAKADTLTPEECQQFKKQIMKEIQEHKIKIYEFPETDDEEENKLVKKIKDRLPLAVVGSNTIIEVNGKRVRGRQYPWGVAEVENGEHCDFTILRNMLIRTHMQDLKDVTNNVHYENYRSRKLAAVTYNGVDNNKNKGQLTKSPLAQMEEERREHVAKMKKMEMEMEQVFEMKVKEKVQKLKDSEAELQRRHEQMKKNLEAQHKELEEKRRQFEDEKANWEAQQRILEQQNSSRTLEKNKKKGKIF
B3: Zyxin (protein, UniProt Q15942 1-572)
chain: MAAPRPSPAISVSVSAPAFYAPQKKFGPVVAPKPKVNPFRPGDSEPPPAPGAQRAQMGRVGEIPPPPPEDFPLPPPPLAGDGDDAEGALGGAFPPPPPPIEESFPPAPLEEEIFPSPPPPPEEEGGPEAPIPPPPQPREKVSSIDLEIDSLSSLLDDMTKNDPFKARVSSGYVPPPVATPFSSKSSTKPAAGGTAPLPPWKSPSSSQPLPQVPAPAQSQTQFHVQPQPQPKPQVQLHVQSQTQPVSLANTQPRGPPASSPAPAPKFSPVTPKFTPVASKFSPGAPGGSGSQPNQKLGHPEALSAGTGSPQPPSFTYAQQREKPRVQEKQHPVPPPAQNQNQVRSPGAPGPLTLKEVEELEQLTQQLMQDMEHPQRQNVAVNELCGRCHQPLARAQPAVRALGQLFHIACFTCHQCAQQLQGQQFYSLEGAPYCEGCYTDTLEKCNTCGEPITDRMLRATGKAYHPHCFTCVVCARPLEGTSFIVDQANRPHCVPDYHKQYAPRCSVCSEPIMPEPGRDETVRVVALDKNFHMKCYKCEDCGKPLSIEADDNGCFPLDGHVLCRKCHTARAQT
B4: Outer dense fiber of sperm tails 2 (protein, UniProt Q5BJF6 1-829)
chain: MSASSSGGSPRFPSCGKNGVTSLTQKKVLRAPCGAPSVTVTKSHKRGMKGDTVNVRRSVRVKTKVPWMPPGKSSARPVGCKWENPPHCLEITPPSSEKLVSVMRLSDLSTEDDDSGHCKMNRYDKKIDSLMNAVGCLKSEVKMQKGERQMAKRFLEERKEELEEVAHELAETEHENTVLRHNIERMKEEKDFTILQKKHLQQEKECLMSKLVEAEMDGAAAAKQVMALKDTIGKLKTEKQMTCTDINTLTRQKELLLQKLSTFEETNRTLRDLLREQHCKEDSERLMEQQGALLKRLAEADSEKARLLLLLQDKDKEVEELLQEIQCEKAQAKTASELSKSMESMRGHLQAQLRSKEAENSRLCMQIKNLERSGNQHKAEVEAIMEQLKELKQKGDRDKESLKKAIRAQKERAEKSEEYAEQLHVQLADKDLYVAEALSTLESWRSRYNQVVKEKGDLELEIIVLNDRVTDLVNQQQTLEEKMREDRDSLVERLHRQTAEYSAFKLENERLKASFAPMEDKLNQAHLEVQQLKASVKNYEGMIDNYKSQVMKTRLEADEVAAQLERCDKENKILKDEMNKEIEAARRQFQSQLADLQQLPDILKITEAKLAECQDQLQGYERKNIDLTAIISDLRSRIEHQGDKLEMAREKHQASQKENKQLSLKVDELERKLEATSAQNIEFLQVIAKREEAIHQSQLRLEEKTRECGTLARQLESAIEDARRQVEQTKEHALSKERAAQNKILDLETQLSRTKTELSQLRRSRDDADRRYQSRLQDLKDRLEQSESTNRSMQNYVQFLKSSYANVFGDGPYSTFLTSSPIRSRSPPA
B5: Septin 9 (protein, UniProt Q9UHD8 1-586)
chain: MKKSYSGGTRTSSGRLRRLGDSSGPALKRSFEVEEVETPNSTPPRRVQTPLLRATVASSTQKFQDLGVKNSEPSARHVDSLSQRSPKASLRRVELSGPKAAEPVSRRTELSIDISSKQVENAGAIGPSRFGLKRAEVLGHKTPEPAPRRTEITIVKPQESAHRRMEPPASKVPEVPTAPATDAAPKRVEIQMPKPAEAPTAPSPAQTLENSEPAPVSQLQSRLEPKPQPPVAEATPRSQEATEAAPSCVGDMADTPRDAGLKQAPASRNEKAPVDFGYVGIDSILEQMRRKAMKQGFEFNIMVVGQSGLGKSTLINTLFKSKISRKSVQPTSEERIPKTIEIKSITHDIEEKGVRMKLTVIDTPGFGDHINNENCWQPIMKFINDQYEKYLQEEVNINRKKRIPDTRVHCCLYFIPATGHSLRPLDIEFMKRLSKVVNIVPVIAKADTLTLEERVHFKQRITADLLSNGIDVYPQKEFDEDSEDRLVNEKFREMIPFAVVGSDHEYQVNGKRILGRKTKWGTIEVENTTHCEFAYLRDLLIRTHMQNIKDITSSIHFEAYRVKRLNEGSSAMANGMEEKEPEAPEM
B6: Septin 11 (protein, UniProt Q9NVA2 1-429)
chain: MAVAVGRPSNEELRNLSLSGHVGFDSLPDQLVNKSTSQGFCFNILCVGETGIGKSTLMDTLFNTKFESDPATHNEPGVRLKARSYELQESNVRLKLTIVDTVGFGDQINKDDSYKPIVEYIDAQFEAYLQEELKIKRSLFNYHDTRIHACLYFIAPTGHSLKSLDLVTMKKLDSKVNIIPIIAKADTIAKNELHKFKSKIMSELVSNGVQIYQFPTDEETVAEINATMSVHLPFAVVGSTEEVKIGNKMAKARQYPWGVVQVENENHCDFVKLREMLIRVNMEDLREQTHTRHYELYRRCKLEEMGFKDTDPDSKPFSLQETYEAKRNEFLGELQKKEEEMRQMFVMRVKEKEAELKEAEKELHEKFDLLKRTHQEEKKKVEDKKKELEEEVNNFQKKKAAAQLLQSQAQQSGAQQTKKDKDKKNASFT

The chains behind the UniProt entries cited, without tags or fusion partners.
UniProt P35609: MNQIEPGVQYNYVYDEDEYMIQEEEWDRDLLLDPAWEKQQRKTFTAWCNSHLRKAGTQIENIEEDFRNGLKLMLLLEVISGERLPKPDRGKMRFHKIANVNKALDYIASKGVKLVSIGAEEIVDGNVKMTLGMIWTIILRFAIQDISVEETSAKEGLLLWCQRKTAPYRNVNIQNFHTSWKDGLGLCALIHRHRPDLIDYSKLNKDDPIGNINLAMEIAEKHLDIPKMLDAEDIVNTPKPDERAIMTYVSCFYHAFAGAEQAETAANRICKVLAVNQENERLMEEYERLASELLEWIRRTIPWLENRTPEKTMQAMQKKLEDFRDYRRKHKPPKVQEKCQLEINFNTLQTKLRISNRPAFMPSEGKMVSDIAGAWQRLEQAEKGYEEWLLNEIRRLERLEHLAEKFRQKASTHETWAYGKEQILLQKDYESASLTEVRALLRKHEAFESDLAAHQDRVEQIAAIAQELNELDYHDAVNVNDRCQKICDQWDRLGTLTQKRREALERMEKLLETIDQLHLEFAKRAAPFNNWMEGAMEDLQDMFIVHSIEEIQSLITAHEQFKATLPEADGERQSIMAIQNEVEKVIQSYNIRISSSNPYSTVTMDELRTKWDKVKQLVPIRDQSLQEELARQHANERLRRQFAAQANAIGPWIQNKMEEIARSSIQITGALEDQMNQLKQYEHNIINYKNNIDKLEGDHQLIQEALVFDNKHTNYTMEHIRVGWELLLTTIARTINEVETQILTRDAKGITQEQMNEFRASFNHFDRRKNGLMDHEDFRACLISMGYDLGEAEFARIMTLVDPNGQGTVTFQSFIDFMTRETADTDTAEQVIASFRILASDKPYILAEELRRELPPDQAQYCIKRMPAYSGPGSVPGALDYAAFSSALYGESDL
UniProt Q08043: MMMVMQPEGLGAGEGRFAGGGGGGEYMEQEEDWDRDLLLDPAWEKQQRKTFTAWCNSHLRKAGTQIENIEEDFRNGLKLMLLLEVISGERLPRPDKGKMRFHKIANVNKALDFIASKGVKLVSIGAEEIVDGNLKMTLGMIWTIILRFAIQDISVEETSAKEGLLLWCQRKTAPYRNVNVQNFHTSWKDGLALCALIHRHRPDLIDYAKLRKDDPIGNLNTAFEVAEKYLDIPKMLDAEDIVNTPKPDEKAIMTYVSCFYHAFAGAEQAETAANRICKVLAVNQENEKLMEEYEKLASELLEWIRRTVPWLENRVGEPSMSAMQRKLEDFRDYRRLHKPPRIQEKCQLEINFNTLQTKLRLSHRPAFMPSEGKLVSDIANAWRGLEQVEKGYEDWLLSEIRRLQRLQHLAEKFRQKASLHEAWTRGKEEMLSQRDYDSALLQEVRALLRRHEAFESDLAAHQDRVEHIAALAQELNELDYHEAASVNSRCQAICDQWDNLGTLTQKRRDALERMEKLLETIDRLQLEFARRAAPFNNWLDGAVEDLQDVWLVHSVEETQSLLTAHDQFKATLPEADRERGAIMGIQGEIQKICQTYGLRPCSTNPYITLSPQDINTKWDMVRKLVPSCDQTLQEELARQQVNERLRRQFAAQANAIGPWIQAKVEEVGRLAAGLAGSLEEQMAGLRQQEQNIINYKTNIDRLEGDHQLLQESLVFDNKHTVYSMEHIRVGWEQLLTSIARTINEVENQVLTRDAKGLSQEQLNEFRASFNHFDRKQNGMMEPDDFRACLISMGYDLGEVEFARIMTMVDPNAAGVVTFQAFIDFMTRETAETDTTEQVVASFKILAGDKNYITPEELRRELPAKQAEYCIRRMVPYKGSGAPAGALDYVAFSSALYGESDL
UniProt Q9Y281: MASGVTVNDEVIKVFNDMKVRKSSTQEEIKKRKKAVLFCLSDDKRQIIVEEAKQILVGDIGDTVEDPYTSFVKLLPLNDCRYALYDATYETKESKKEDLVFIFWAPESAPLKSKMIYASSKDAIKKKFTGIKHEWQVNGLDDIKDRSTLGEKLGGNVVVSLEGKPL
UniProt Q14247: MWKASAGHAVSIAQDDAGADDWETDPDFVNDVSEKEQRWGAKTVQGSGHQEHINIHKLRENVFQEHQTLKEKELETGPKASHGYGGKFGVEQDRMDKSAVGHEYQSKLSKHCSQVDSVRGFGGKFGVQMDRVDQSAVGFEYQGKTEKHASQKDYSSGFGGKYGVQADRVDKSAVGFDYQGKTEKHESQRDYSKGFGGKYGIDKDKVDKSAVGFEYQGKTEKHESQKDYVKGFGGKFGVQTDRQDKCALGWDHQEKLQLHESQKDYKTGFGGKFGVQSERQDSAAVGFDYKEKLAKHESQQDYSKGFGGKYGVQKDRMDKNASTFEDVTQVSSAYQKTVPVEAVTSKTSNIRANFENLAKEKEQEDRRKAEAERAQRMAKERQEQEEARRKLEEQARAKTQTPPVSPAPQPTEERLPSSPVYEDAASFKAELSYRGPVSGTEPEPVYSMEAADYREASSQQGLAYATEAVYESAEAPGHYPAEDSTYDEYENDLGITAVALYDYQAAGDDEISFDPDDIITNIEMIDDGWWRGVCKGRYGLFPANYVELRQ
UniProt Q9Y6G9: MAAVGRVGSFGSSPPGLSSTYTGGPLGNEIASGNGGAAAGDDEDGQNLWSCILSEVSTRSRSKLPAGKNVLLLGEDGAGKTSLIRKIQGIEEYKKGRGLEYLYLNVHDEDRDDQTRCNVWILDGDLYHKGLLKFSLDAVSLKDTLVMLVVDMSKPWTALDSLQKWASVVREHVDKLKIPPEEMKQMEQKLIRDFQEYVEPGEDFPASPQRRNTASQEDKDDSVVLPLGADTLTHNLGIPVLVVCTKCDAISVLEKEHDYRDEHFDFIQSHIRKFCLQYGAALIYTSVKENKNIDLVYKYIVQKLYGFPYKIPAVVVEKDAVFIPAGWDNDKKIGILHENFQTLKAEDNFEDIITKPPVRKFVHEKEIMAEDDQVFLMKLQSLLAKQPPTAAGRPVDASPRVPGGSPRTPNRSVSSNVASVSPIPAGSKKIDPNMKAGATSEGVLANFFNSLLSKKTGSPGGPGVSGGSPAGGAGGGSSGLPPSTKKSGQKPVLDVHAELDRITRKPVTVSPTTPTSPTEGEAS
UniProt P14649: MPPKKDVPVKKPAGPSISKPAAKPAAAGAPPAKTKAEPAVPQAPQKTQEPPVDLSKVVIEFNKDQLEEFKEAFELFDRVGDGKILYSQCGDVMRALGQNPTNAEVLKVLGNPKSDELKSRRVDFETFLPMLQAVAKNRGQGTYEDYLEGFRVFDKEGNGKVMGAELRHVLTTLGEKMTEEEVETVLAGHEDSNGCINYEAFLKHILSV
UniProt Q7Z406: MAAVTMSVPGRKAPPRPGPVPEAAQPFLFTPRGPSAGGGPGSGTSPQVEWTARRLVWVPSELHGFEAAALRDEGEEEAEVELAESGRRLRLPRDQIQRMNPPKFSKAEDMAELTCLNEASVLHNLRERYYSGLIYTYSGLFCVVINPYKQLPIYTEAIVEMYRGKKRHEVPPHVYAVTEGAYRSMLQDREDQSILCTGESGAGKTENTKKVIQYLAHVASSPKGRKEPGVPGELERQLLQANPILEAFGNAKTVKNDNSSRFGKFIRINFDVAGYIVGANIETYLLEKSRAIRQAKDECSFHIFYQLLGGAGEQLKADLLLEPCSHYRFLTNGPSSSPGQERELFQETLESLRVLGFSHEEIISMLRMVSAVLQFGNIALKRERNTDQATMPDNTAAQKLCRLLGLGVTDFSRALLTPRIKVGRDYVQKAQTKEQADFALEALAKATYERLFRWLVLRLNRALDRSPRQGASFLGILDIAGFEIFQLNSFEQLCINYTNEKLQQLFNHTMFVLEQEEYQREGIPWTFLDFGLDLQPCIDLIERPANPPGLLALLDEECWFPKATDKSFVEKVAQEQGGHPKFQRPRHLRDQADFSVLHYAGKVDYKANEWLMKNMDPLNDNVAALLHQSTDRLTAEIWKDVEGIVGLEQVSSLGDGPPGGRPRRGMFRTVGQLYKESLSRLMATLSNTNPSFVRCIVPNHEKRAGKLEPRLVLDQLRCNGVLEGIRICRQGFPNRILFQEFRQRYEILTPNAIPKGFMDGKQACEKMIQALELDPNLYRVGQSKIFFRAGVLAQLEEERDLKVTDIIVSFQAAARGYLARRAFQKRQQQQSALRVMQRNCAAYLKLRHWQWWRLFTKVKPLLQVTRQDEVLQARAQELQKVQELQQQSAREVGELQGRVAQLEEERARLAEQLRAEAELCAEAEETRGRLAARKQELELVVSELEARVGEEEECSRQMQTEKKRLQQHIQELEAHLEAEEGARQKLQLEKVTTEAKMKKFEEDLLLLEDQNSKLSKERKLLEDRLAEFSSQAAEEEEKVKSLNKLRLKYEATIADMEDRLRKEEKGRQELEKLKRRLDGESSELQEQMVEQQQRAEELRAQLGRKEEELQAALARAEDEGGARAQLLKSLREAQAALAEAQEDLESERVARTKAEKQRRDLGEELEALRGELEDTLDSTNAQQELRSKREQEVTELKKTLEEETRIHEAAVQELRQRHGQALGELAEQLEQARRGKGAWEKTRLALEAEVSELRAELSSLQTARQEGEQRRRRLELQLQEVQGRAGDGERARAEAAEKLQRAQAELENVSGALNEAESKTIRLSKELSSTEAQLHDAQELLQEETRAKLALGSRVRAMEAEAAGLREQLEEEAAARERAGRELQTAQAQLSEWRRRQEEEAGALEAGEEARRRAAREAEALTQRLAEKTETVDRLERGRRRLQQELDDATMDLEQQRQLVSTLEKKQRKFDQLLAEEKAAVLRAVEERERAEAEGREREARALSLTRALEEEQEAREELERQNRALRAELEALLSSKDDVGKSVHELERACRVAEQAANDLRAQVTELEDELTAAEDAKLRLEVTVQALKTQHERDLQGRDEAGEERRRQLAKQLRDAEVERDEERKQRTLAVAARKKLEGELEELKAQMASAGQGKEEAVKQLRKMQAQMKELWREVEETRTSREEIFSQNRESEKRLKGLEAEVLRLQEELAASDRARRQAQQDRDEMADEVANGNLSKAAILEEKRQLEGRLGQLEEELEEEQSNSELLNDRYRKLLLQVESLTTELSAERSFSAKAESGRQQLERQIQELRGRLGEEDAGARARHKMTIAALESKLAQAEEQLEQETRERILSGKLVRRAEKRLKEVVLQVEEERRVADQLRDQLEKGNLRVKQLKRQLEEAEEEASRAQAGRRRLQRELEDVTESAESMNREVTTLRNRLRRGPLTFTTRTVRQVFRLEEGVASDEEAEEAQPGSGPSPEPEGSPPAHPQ
UniProt P16949: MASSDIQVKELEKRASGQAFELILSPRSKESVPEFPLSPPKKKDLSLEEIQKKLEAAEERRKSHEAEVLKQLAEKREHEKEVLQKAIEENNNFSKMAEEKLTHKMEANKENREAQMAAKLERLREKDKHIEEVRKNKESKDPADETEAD
UniProt Q9BVA1: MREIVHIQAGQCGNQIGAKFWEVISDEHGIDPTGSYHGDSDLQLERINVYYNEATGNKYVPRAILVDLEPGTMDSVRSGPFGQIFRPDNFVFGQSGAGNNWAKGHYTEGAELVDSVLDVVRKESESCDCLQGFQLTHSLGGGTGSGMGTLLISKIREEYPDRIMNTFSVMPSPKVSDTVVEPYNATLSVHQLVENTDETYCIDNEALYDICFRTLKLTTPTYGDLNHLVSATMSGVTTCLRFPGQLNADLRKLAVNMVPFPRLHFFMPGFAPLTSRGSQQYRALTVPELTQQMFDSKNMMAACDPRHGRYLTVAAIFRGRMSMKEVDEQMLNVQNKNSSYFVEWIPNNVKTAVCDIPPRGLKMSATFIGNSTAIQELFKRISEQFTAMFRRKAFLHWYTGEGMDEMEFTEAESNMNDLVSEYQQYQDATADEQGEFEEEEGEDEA
UniProt P68371: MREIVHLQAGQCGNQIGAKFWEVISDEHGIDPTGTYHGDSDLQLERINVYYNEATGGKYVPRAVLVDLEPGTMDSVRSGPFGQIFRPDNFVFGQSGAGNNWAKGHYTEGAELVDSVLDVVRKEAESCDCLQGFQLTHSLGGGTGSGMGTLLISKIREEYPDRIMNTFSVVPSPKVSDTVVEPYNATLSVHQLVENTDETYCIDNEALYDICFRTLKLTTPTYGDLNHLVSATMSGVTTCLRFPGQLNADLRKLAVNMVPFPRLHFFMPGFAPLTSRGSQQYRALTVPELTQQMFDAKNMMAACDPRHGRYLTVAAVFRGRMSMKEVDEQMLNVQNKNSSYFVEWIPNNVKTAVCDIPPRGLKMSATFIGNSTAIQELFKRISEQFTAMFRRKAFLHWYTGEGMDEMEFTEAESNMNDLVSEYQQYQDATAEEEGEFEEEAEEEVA

Molecular target: T1, FLAG-SEPT14 (wild type), expressed in NT2D1 cells (human) (UniProt Q6ZU15)
T1 sequence: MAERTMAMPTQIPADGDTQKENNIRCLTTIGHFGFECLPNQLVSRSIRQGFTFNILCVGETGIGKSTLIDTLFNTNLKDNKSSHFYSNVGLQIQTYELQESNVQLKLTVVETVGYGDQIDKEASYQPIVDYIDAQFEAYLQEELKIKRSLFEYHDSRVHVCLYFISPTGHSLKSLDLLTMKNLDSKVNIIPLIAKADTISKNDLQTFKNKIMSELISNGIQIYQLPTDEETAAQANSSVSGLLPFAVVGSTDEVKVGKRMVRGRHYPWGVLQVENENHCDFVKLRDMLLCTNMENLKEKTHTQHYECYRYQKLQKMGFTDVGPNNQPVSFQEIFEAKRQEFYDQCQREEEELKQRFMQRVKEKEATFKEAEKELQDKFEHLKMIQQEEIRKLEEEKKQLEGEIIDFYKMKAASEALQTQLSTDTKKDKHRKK
Assay: affinity purification with mass spectrometry; lysate of NT2D1 cells transfected with pFLAG-SEPT14, precipitated with FLAG antibody (control IgG beside it) on protein A/G beads at 4 °C overnight, washed twice with PBS; nano-LC-MS/MS; triplicate

Molecule | binding
ACTN4 (actinin, alpha 4), endogenous in NT2D1 cells (from UniProt O43707 1-911) | binds
Actinin, alpha 2 (from UniProt P35609 1-894) | binds
Actinin, alpha 3 (from UniProt Q08043 1-901) | binds
Cofilin 2 (from UniProt Q9Y281 1-166) | binds
Cortactin (from UniProt Q14247 1-550) | binds
Dynein, cytoplasmic 1, light intermediate chain 1 (from UniProt Q9Y6G9 1-523) | binds
Fibrous sheath interacting protein 2 (from UniProt Q5CZC0 1-6907) | binds
Integrin beta-1 (from UniProt P05556 21-798) | binds
Kinesin family member 5B (from UniProt P33176 1-963) | binds
Laminin subunit alpha 2 (from UniProt P24043 23-3122) | binds
Myosin light chain 6B (from UniProt P14649 1-208) | binds
Myosin, heavy chain 14 (from UniProt Q7Z406 1-1995) | binds
Stathmin (from UniProt P16949 1-149) | binds
Tubulin beta 2A (from UniProt Q13885 1-445) | binds
Tubulin beta 2B (from UniProt Q9BVA1 1-445) | binds
Tubulin, beta 4B (from UniProt P68371 1-445) | binds
B1 | binds
B2 | binds
B3 | binds
B4 | binds
B5 | binds
B6 | binds

Reference: publication PMC7699536
